{"source": "paper PMC11768584", "about": "(Viruses, 2025)", "experiment": "in vitro", "settings": "human", "data": [{"smiles": "COC(=O)C1=C(C)NC(C)=C(C(=O)OC)C1c1ccccc1[N+](=O)[O-]", "note": "[Nifidipine, nifedipine]", "values": [{"measurement": "CC50", "result": "> 100", "unit": "µM"}]}]}
